{"sequences": {"note": "Protein sequences, listed by entry. Tags and fused reporters are not part of them.", "UniProt Q01974, whole entry": "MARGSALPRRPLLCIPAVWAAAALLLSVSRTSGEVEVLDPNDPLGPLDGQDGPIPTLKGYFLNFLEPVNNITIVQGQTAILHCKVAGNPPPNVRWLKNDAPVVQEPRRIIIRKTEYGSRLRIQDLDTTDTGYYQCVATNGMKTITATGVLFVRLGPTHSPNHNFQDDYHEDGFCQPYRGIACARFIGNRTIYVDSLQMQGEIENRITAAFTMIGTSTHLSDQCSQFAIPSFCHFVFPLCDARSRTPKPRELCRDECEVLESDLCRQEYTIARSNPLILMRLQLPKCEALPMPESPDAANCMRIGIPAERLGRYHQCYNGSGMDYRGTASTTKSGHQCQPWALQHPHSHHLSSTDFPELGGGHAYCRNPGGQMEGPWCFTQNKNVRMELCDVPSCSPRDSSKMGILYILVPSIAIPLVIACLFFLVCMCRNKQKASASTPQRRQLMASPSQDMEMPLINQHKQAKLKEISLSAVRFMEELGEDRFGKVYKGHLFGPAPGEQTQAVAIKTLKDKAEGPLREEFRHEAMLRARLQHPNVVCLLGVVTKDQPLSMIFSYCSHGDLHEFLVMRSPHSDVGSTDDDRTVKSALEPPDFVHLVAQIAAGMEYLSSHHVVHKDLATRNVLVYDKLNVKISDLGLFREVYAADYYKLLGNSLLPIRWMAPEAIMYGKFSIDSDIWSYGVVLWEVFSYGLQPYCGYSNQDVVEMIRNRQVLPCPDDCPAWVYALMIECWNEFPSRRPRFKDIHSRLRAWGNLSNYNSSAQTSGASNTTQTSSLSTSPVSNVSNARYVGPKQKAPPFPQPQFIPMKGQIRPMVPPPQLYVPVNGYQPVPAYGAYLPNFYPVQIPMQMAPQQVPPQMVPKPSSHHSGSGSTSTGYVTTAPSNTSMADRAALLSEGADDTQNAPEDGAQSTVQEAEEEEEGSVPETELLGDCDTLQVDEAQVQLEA", "UniProt Q15418, whole entry": "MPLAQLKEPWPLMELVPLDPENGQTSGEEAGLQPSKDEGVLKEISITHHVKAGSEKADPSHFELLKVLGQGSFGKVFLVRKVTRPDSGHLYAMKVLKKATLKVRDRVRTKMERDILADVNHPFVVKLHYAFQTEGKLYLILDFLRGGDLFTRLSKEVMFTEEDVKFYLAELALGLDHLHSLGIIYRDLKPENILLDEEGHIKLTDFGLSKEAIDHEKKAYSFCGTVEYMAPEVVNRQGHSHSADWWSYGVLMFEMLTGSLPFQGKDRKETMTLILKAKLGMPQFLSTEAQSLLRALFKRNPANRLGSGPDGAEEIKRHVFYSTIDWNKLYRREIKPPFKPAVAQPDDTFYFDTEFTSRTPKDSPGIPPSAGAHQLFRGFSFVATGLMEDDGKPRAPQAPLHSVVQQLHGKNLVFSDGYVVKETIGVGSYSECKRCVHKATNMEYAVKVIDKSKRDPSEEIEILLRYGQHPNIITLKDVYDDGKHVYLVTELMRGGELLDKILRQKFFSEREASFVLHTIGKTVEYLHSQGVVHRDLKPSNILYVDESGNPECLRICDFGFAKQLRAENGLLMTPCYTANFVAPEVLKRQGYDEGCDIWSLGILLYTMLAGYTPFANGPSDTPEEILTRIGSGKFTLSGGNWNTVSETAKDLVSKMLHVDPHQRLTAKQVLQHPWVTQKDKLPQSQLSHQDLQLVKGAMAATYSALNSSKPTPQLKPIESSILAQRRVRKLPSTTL"}, "source": "the supplement of paper PMC12823440", "about": "“Inhibitors supercharge kinase turnover through native proteolytic circuits” (Nature, 2025)", "note": "Where a name gives a salt, the structure may show the parent alone. The list shows a part of the results. The calls rarely recur for the same compound in another form.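 Kinases, fused to nanoluciferase, were expressed in K562 cells; luminescence was measured every 4 h from 2 to 18 h as percent of control (DMSO = 100%, positive control = 0%). A time point is decreased if signal falls significantly (2 sigma). Hits were called by the authors by a rule that is not shown; the count of time points alone does not decide it.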", "data": [{"target": "ROR2 (UniProt Q01974)", "test": "number of time points (of 5) at which kinase-Nluc abundance scored as decreased, DMSO-normalised (count); higher = more persistent destabilization", "conditions": "K562; 2-18 h", "values": [{"smiles": "CCC[C@H](C)Oc1nc(N)c2[nH]c(=O)n(CCCCCN3CCCCC3)c2n1", "note": "(10 µM)", "number of time points": 0}, {"smiles": "CC(C)(Oc1ccc(Cl)cc1)C(=O)Nc1ccc(OCc2ccc(C#N)cc2)cc1", "note": "[AMPK activator 4] (10 µM)", "number of time points": 0}, {"smiles": "Cc1cc(N2CCOCC2)ccc1Nc1nc(NC2CCCCC2)c2[nH]cnc2n1", "note": "(10 µM)", "number of time points": 0}, {"smiles": "CC(ONC(=O)c1cc(C(F)(F)F)cc(C(F)(F)F)c1)C(=O)Nc1ccc(Cl)cc1", "note": "(centres undefined) (2.5 µM)", "number of time points": 0}, {"smiles": "O=S(=O)(c1ccc(O)cc1O)N1Cc2cc(O)cc(O)c2C1", "note": "(10 µM)", "number of time points": 0}, {"smiles": "CN1CCN(c2ccc(-n3cc(-c4ccncc4OCC4CCNCC4)cn3)cc2)CC1", "note": "[MELK-8a (hydrochloride)] (10 µM)", "number of time points": 0}, {"smiles": "CCCCC(=O)OCC(=O)[C@]1(O)Cc2c(O)c3c(c(O)c2[C@@H](O[C@H]2C[C@H](NC(=O)C(F)(F)F)[C@H](O)[C@H](C)O2)C1)C(=O)c1c(OC)cccc1C3=O", "note": "[Valrubicin] (10 µM)", "number of time points": 0}, {"smiles": "CC(C)=CCC[C@](C)(O[C@@H]1O[C@H](CO[C@@H]2O[C@H](CO)[C@@H](O)[C@H](O)[C@H]2O)[C@@H](O)[C@H](O)[C@H]1O)[C@H]1CC[C@]2(C)[C@@H]1[C@H](O)C[C@@H]1[C@@]3(C)CC[C@H](O[C@@H]4O[C@H](CO)[C@@H](O)[C@H](O)[C@H]4O[C@@H]4O[C@H](CO)[C@@H](O)[C@H](O)[C@H]4O)C(C)(C)[C@@H]3CC[C@]12C", "note": "[Ginsenoside Rb1] (10 µM)", "number of time points": 0}, {"smiles": "O=c1cc(-c2ccc(O[C@@H]3O[C@H](CO)[C@@H](O)[C@H](O)[C@H]3O)cc2)oc2cc(O)c([C@@H]3O[C@H](CO)[C@@H](O)[C@H](O)[C@H]3O[C@@H]3OC[C@H](O)[C@H](O)[C@H]3O)c(O)c12", "note": "[Vaccarin] (10 µM)", "number of time points": 0}, {"smiles": "Nc1ccc(Sc2nc3ccccc3s2)c(Cl)c1", "note": "[KRAS inhibitor-9] (10 µM)", "number of time points": 0}, {"smiles": "COc1ccc2cc1Oc1ccc(cc1)C[C@H]1c3cc(c(OC)cc3CCN1C)Oc1c(O)c(OC)cc3c1[C@H](C2)N(C)CC3", "note": "[Fangchinoline] (2.5 µM)", "number of time points": 0}, {"smiles": "Nc1nccc(Oc2ccc3c(C(=O)Nc4cccc(C(F)(F)F)c4)cccc3c2)n1", "note": "(10 µM)", "number of time points": 0}, {"smiles": "CN1C(=O)N[C@@H](Cc2c[nH]c3c(Cl)cccc23)C1=O", "note": "[Necrostatin 2 (S enantiomer)] (10 µM)", "number of time points": 0}, {"smiles": "Cc1ncc(-c2cc(F)c(O)c(F)c2)cc1-c1cc(F)c(O)c(F)c1", "note": "(10 µM)", "number of time points": 0}, {"smiles": "N=C(NC(=N)N1CCCC1)Nc1ccc(OC(F)(F)F)cc1", "note": "(10 µM)", "number of time points": 0}]}, {"target": "RPS6KA1 (UniProt Q15418)", "test": "number of time points (of 5) at which kinase-Nluc abundance scored as decreased, DMSO-normalised (count); higher = more persistent destabilization", "conditions": "K562; 2-18 h", "values": [{"smiles": "COc1ccc(Br)c(C=O)c1O", "note": "[6-Bromo-2-hydroxy-3-methoxybenzaldehyde] (10 µM)", "number of time points": 0}, {"smiles": "O=C1C=CC2=C3c4cc(O)c(O)cc4CC3(O)COC2=C1O", "note": "(centres undefined) [Hematein] (10 µM)", "number of time points": 0}, {"smiles": "Cc1cccc(CC(=O)N2CCc3c2ccc(-c2cn(C)c4ncnc(N)c24)c3F)n1", "note": "(10 µM)", "number of time points": 0}, {"smiles": "COCCOc1cnc2ccn([C@H](C)c3nnc4c(F)cc(-c5cnn(C)c5)cn34)c(=O)c2c1", "note": "(10 µM)", "number of time points": 0}, {"smiles": "Cn1cc(C2=C(c3ccc(Cl)cc3Cl)C(=O)NC2=O)c2ccccc21", "note": "(10 µM)", "number of time points": 0}, {"smiles": "COc1cc(N2CCC(N3CCN(C)CC3)CC2)ccc1Nc1ncnc(Nc2ccccc2S(=O)(=O)C(C)C)n1", "note": "(10 µM)", "number of time points": 0}, {"smiles": "COc1c(Nc2ncc(Cl)c(N[C@H]3[C@@H](C(N)=O)[C@@H]4C=C[C@H]3C4)n2)ccc2c1CC[C@@H](N1CCOCC1)CC2", "note": "(10 µM)", "number of time points": 0}, {"smiles": "Cc1ccc(NC(=O)N2CCN(c3nc(N)nc4sc(-c5cccnc5)nc34)CC2)cc1", "note": "[PI4KIII beta inhibitor 3] (10 µM)", "number of time points": 0}, {"smiles": "CNc1cc2c(Nc3cccc(Br)c3)ncnc2cn1", "note": "(10 µM)", "number of time points": 0}, {"smiles": "CC(C)n1c(CO)nc2c(F)cc(-c3nc(Nc4ccc(CN5CCNCC5)cn4)ncc3F)cc21", "note": "(10 µM)", "number of time points": 0}, {"smiles": "CN1CCC(Nc2ccc(C(=O)Nc3cc(-c4ccc5c(c4)OCO5)[nH]n3)cc2)CC1", "note": "(10 µM)", "number of time points": 0}, {"smiles": "CNC(=O)CN1CCC(Oc2cc3c(Nc4cccc(Cl)c4F)ncnc3cc2OC)CC1", "note": "[Sapitinib] (10 µM)", "number of time points": 0}, {"smiles": "O=C(O)c1c[nH]c2cc(Cl)c(-c3ccc(C4(O)CCC4)cc3)cc12", "note": "(10 µM)", "number of time points": 0}, {"smiles": "COc1cc(N2CCC(O)CC2)ccc1Nc1nc(Nc2ccccc2S(=O)(=O)C(C)C)c2[nH]cnc2n1", "note": "(10 µM)", "number of time points": 0}, {"smiles": "O=c1c(O)c(-c2ccc(O)c(O)c2)oc2cc(O)c(O)c(O)c12", "note": "[Quercetagetin] (10 µM)", "number of time points": 0}, {"smiles": "Cc1ncsc1-c1ccc(CNC(=O)[C@@H]2C[C@@H](O)CN2C(=O)[C@@H](NC(=O)COCCOc2ccc(-c3cc(Nc4ccc(OC(F)(F)F)cc4)ncn3)cc2)C(C)(C)C)cc1", "note": "(2.5 µM)", "number of time points": 0}, {"smiles": "COc1cc(Nc2ccnc3ccc(Br)cc23)cc(OC)c1OC", "note": "(2.5 µM)", "number of time points": 0}, {"smiles": "Cc1ccc2c(NS(=O)(=O)c3ccccc3Cl)cccc2c1Oc1ncccc1-c1ccnc(N[C@H]2CCCNC2)n1", "note": "(2.5 µM)", "number of time points": 0}, {"smiles": "CC(C)c1cc2c(c(O)c1O)[C@@]13CCCC(C)(C)[C@@H]1C[C@@H]2OC3=O", "note": "[Carnosol] (2.5 µM)", "number of time points": 0}, {"smiles": "Cc1nc2c(NCc3cccc(S(C)(=O)=O)c3)nccn2c1-c1ccc(O)c(F)c1", "note": "(10 µM)", "number of time points": 0}, {"smiles": "CC(C)n1cnc2c(Nc3cccc(Cl)c3)nc(N[C@H]3CCCC[C@@H]3N)nc21", "note": "(2.5 µM)", "number of time points": 0}, {"smiles": "O=c1cc(N2CCOCC2)oc2c(-c3cccc4c3sc3ccccc34)cccc12", "note": "(10 µM)", "number of time points": 0}, {"smiles": "C[C@@H]1COC(Nc2ccc3ncnc(Nc4ccc(OCc5nccs5)c(Cl)c4)c3c2)=N1", "note": "[Varlitinib] (10 µM)", "number of time points": 0}, {"smiles": "Cc1cncc2cccc(S(=O)(=O)N3CCCNC[C@@H]3C)c12", "note": "[H-1152 (dihydrochloride)] (10 µM)", "number of time points": 0}, {"smiles": "CCC[C@H](C)Oc1nc(N)c2[nH]c(=O)n(CCCCCN3CCCCC3)c2n1", "note": "(10 µM)", "number of time points": 0}, {"smiles": "CC(C)(Oc1ccc(Cl)cc1)C(=O)Nc1ccc(OCc2ccc(C#N)cc2)cc1", "note": "[AMPK activator 4] (10 µM)", "number of time points": 0}, {"smiles": "Cc1cc(N2CCOCC2)ccc1Nc1nc(NC2CCCCC2)c2[nH]cnc2n1", "note": "(10 µM)", "number of time points": 0}, {"smiles": "CC(ONC(=O)c1cc(C(F)(F)F)cc(C(F)(F)F)c1)C(=O)Nc1ccc(Cl)cc1", "note": "(centres undefined) (2.5 µM)", "number of time points": 0}, {"smiles": "O=S(=O)(c1ccc(O)cc1O)N1Cc2cc(O)cc(O)c2C1", "note": "(10 µM)", "number of time points": 0}, {"smiles": "CN1CCN(c2ccc(-n3cc(-c4ccncc4OCC4CCNCC4)cn3)cc2)CC1", "note": "[MELK-8a (hydrochloride)] (10 µM)", "number of time points": 0}, {"smiles": "CCCCC(=O)OCC(=O)[C@]1(O)Cc2c(O)c3c(c(O)c2[C@@H](O[C@H]2C[C@H](NC(=O)C(F)(F)F)[C@H](O)[C@H](C)O2)C1)C(=O)c1c(OC)cccc1C3=O", "note": "[Valrubicin] (10 µM)", "number of time points": 0}, {"smiles": "CC(C)=CCC[C@](C)(O[C@@H]1O[C@H](CO[C@@H]2O[C@H](CO)[C@@H](O)[C@H](O)[C@H]2O)[C@@H](O)[C@H](O)[C@H]1O)[C@H]1CC[C@]2(C)[C@@H]1[C@H](O)C[C@@H]1[C@@]3(C)CC[C@H](O[C@@H]4O[C@H](CO)[C@@H](O)[C@H](O)[C@H]4O[C@@H]4O[C@H](CO)[C@@H](O)[C@H](O)[C@H]4O)C(C)(C)[C@@H]3CC[C@]12C", "note": "[Ginsenoside Rb1] (10 µM)", "number of time points": 0}, {"smiles": "O=c1cc(-c2ccc(O[C@@H]3O[C@H](CO)[C@@H](O)[C@H](O)[C@H]3O)cc2)oc2cc(O)c([C@@H]3O[C@H](CO)[C@@H](O)[C@H](O)[C@H]3O[C@@H]3OC[C@H](O)[C@H](O)[C@H]3O)c(O)c12", "note": "[Vaccarin] (10 µM)", "number of time points": 0}, {"smiles": "Nc1ccc(Sc2nc3ccccc3s2)c(Cl)c1", "note": "[KRAS inhibitor-9] (10 µM)", "number of time points": 0}, {"smiles": "COc1ccc2cc1Oc1ccc(cc1)C[C@H]1c3cc(c(OC)cc3CCN1C)Oc1c(O)c(OC)cc3c1[C@H](C2)N(C)CC3", "note": "[Fangchinoline] (2.5 µM)", "number of time points": 0}, {"smiles": "Nc1nccc(Oc2ccc3c(C(=O)Nc4cccc(C(F)(F)F)c4)cccc3c2)n1", "note": "(10 µM)", "number of time points": 0}, {"smiles": "CN1C(=O)N[C@@H](Cc2c[nH]c3c(Cl)cccc23)C1=O", "note": "[Necrostatin 2 (S enantiomer)] (10 µM)", "number of time points": 0}, {"smiles": "Cc1ncc(-c2cc(F)c(O)c(F)c2)cc1-c1cc(F)c(O)c(F)c1", "note": "(10 µM)", "number of time points": 0}, {"smiles": "N=C(NC(=N)N1CCCC1)Nc1ccc(OC(F)(F)F)cc1", "note": "(10 µM)", "number of time points": 0}]}]}
